Data as given in PMC10810426.
No constants are given. Whether binding was seen depends on the method and setting. In cells and extracts the contact can be indirect. A result given as binding can be weak or reduced; the word gives no strength.

Tests used:
[1] = target: T1, NUP62 (mouse (endogenous in NIH3T3 and BMDCs)) (UniProt Q63850); test: proximity ligation; Duolink PLA with anti-MLV CA (p30, R187) and anti-NUP358 or anti-NUP62 antibodies in NIH3T3 cells infected with MLV (MOI = 1) at 4 hpi; fixed, permeabilised cells
T1 sequence: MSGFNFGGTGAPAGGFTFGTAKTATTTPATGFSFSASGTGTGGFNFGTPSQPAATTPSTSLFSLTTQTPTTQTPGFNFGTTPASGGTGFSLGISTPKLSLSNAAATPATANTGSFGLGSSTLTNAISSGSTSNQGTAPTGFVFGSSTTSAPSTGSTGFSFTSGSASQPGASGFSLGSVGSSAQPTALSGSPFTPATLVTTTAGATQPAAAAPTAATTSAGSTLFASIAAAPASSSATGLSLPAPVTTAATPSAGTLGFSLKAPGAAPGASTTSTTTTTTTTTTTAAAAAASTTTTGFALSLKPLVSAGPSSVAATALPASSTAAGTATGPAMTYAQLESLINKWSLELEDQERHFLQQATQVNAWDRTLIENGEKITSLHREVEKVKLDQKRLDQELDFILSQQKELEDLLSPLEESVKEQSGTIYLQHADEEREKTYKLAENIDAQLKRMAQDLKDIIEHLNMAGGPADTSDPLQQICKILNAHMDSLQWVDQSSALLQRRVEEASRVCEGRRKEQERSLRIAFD

[2] = target: T1, NUP62 (mouse (endogenous in NIH3T3 and BMDCs)); test: proximity ligation; Duolink PLA with anti-MLV CA (p30, R187) and anti-NUP358 or anti-NUP62 antibodies in BMDCs infected with MLV (MOI = 1) at 4 hpi; fixed, permeabilised cells

Substance: Moloney MLV capsid (CA) of incoming virus
- binding [1]: binds
- binding [2]: binds
